Assay results from US11278584B2, “Pharmaceutical composition for preventing and treating senile dementia and preparation method thereof” (priority 2014, dated 2022).
Counter-ions that a name gives are not always drawn.

Legend:
APPswe transgenic mice [1] = assay: Morris water maze test, APPswe transgenic mice; type: in vivo; settings: intragastric once a day 30 days, compositions 15.83 g raw medicinal materials/kg, donepezil 1.67 mg/kg
APPswe transgenic mice [2] = assay: Object recognition test, APPswe transgenic mice; type: in vivo; settings: intragastric once a day 30 days, compositions 15.83 g raw medicinal materials/kg, donepezil 1.67 mg/kg, model control 0.105

SMILES: COc1cc2c(cc1OC)C(=O)C(CC1CCN(Cc3ccccc3)CC1)C2 (stereo not drawn) [Positive control, Donepezil Hydrochloride]
- Escape latency (APPswe transgenic mice [1]; model control 86.14): 68.23 s
- Distance (cm) (APPswe transgenic mice [1]; model control 982.81): 783.50 cm
- Resolution index (APPswe transgenic mice [2]): 0.176
